Experimental data: PubChem BioAssay AID1259424 (University of Nebraska Medical Center, 2018)

- Purpose: 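Find knockdowns that reproduce the expression shifts seen after KSR1 loss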 (primary screen)
- System: human HCT116 colon cancer cells
- Reagent: siRNA pool against human genes, 50 nM
- Read-out: 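Log2 levels of six mRNAs (branched-DNA multiplex), adjusted by two reference genes and the non-targeting median, then scored against the average KSR1 knockdown pattern as Pearson r and euclidean distance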
- Scale: mean correlation with KSR1 profile and KSR1 correlation: higher = expression change more like KSR1 knockdown; mean distance from KSR1 profile: higher = expression change less like KSR1 knockdown
Shown is a random part of about 14,000 reagents. 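Higher correlation or smaller distance means closer resemblance to KSR1 loss; control wells, including KSR1 knockdowns, recur on many plates.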 Not all columns of the deposit are shown. The record does not give: the time to read-out.

| gene | mean correlation with KSR1 profile | mean distance from KSR1 profile | KSR1 correlation, replicate 1 |
| --- | --- | --- | --- |
| IL1R1 | 0.0379 | 2.56 | 0.0368 |
| CHRNG | 0.106 | 1.66 | 0.0766 |
| ATP5PB | -0.175 | 3.21 | -0.158 |
| TRAF7 | 0.789 | 1.92 | 0.699 |
| DHX37 | 0.365 | 2.02 | 0.251 |
| TUBG2 | -0.0159 | 2.14 | -0.219 |
| CTAGE1 | -0.408 | 1.75 | -0.697 |
| GALT | 0.382 | 3.88 | 0.366 |
| SYN2 | -0.073 | 1.22 | -0.021 |
| HVCN1 | 0.252 | 1.89 | 0.103 |
| MEGF6 | 0.654 | 4.02 | 0.654 |
| ACE2 | 0.681 | 1.91 | 0.153 |
| NOL11 | -0.234 | 5.77 | -0.188 |
| ETV1 | -0.437 | 1.28 | -0.359 |
| ANKRA2 | -0.034 | 0.831 | -0.468 |
| FOXRED2 | -0.339 | 3.33 | -0.33 |
| ABHD8 | -0.488 | 2.11 | -0.392 |
| ABCA10 | 0.138 | 1.2 | 0.234 |
| MYCBP2 | -0.159 | 1.8 | 0.0289 |
| PRPF40B | -0.09 | 2.56 | -0.112 |
| MYO5B | 0.0225 | 1.19 | 0.243 |
| RFFL | -0.697 | 1.81 | -0.595 |
| BCAS4 | -0.399 | 1.67 | -0.591 |
| CTSK | -0.273 | 2.8 | -0.338 |
| SNRNP27 | -0.554 | 4.24 | -0.416 |
| TFDP3 | -0.239 | 1.46 | -0.336 |
| ASPH | 0.0657 | 2.32 | 0.0543 |
| PADI1 | -0.255 | 3.18 | -0.217 |
| ATP5F1D | 0.165 | 4.89 | 0.191 |
| LCK | 0.238 | 1.79 | 0.561 |
| STXBP1 | 0.453 | 1.59 | 0.582 |
| ABCA12 | -0.54 | 2.35 | -0.369 |
| PAQR8 | 0.778 | 4.14 | 0.797 |
| FAM120B | 0.0788 | 3.31 | 0.132 |
| VPREB3 | 0.2 | 3.03 | 0.11 |
| MYD88 | -0.0431 | 1.79 | 0.02 |
| RBM19 | 0.317 | 2.16 | 0.437 |
| LRRC19 | 0.903 | 0.844 | 0.658 |
| EYA4 | -0.288 | 3.1 | -0.308 |
| VAMP2 | 0.168 | 2.85 | 0.185 |
| ITGB6 | 0.681 | 0.826 | 0.515 |
| LINC00308 | 0.51 | 1.16 | 0.763 |
| ACSM5 | 0.0636 | 4.79 | 0.0107 |
| PRAG1 | -0.403 | 2.59 | -0.142 |
| TF | 0.351 | 2.1 | 0.258 |
| TIMM8B | -0.0921 | 3.17 | -0.151 |
| IFNA5 | 0.124 | 0.926 | -0.267 |
| SLC30A2 | -0.197 | 2.24 | -0.226 |
| CBS | -0.95 | 3.43 | -0.829 |
| SLC7A8 | -0.131 | 1.23 | -0.408 |
